The record followed here is paper PMC12946505.

The target of the data set is RrJMJ12-HIS (Rosa rugosa) (UniProt A0A2P6P5A5). Kind of data set: EMSA. Particulars: EMSA/Gel-Shift Kit (Beyotime) binding buffer, 30 min at 24 C, salt and pH not stated, recombinant protein, protein details: His (pET32a), label: biotin.
[1] abbreviates: increasing RrMYB2-GST (full CDS).

The exact form of at least one protein or probe is not confirmed. A weaker result is weaker than the reference pair of the same experiment. At least one verdict was read from the data and is not stated in words by the source.

On to “GTCTTATTTTTCTCTGTTTTCTTTTTTGGTATT (double strand) [Probe3]”, for which the binding result is, setting by setting: under setting [1], “binds more weakly”; (without RrMYB2) “binds”.
In the case of “TAATTAGGTATCTCTGCTCGAGTTCTTTTG (double strand) [Probe5]”, the binding result reads like this: under setting [1], “binds more weakly”; (without RrMYB2) “binds”.
Turning to “TTTCTCATGAACCCTCTGCTTTCTCATCTTGGGT (double strand) [Probe2]”, the binding result is, setting by setting: under setting [1], “binds more weakly”; (without RrMYB2) “binds”.
